{"source": "patent US6500821B1", "about": "“4-amino-1-aryl-1,5-dihydropyrrol-2-ones and process for making” (Arzneimittelwerk Dresden GmbH, priority 1999, dated 2002)", "tested_on": "Vogel Conflict Test", "test": "Vogel Conflict Test", "type": "in vivo, rat", "description": "In this model, continuous access to drinking water is withheld from rats for a certain time. After this period, free access is given to drinking water, but is coupled with a mild electrical stimulation. The conflict for the animals is between accepting the electrical stimulation or going without a drink.\nThe reactions to a conflict situation of this type are similar to the secondary phenomena of anxiety in man. The resulting avoidance reactions can be suppressed by anxiolytic substances. As a measure of the anxiolytic action, the number of tolerated current pulses of the animals treated with the test substance is assessed in comparison to the vehicle-treated control group.", "data": [{"smiles": "CN1C(=O)CN=C(c2ccccc2)c2cc(Cl)ccc21", "note": "[Diazepam, diazepam]", "values": [{"measurement": "therapeutic index", "value": 13}]}]}
